Results reported in PubChem BioAssay AID1347076 (National Center for Advancing Translational Sciences (NCATS), 2019).
Among all 400,000 compounds or so, about 13,000 (3.2%) were called active. Inconclusive results, whose numbers are uncertain, are shown with a selection of clear calls. The call rests on the fitted dose curve; in most records, active means well fitted cell-killing curve with a large enough effect; inconclusive means small, poorly fitted or top-dose-only effect, or effect the other way; inactive means flat fitted curve, though single readings scatter. Potencies of inconclusive entries are doubtful fits and often do not repeat. Some structures have more than one record in an assay (separate samples or runs), and their calls can disagree.

test: qHTS assay for MDR1-selective chemotherapeutics: Primary screen using the drug-selected MDR subline cells KB-V1; details: KB-V1 MDR cells viability, CellTiter-Glo, 72 h; series mostly up to 46.1 µM; further: nearly all actives have a fitted effect of over 60% in size
Summary of the method: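 qHTS viability screen in drug-selected KB-V1 MDR cells: 72 h compound treatment at 37 degrees C, ATP luminescence end point.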
Potency means the concentration at half of the fitted maximal effect.

Row | Compound | Potency
1 | CCOc1ccc(-c2c(C)nn3c(C)c(C(=O)NCCc4ccc(C)cc4)cnc23)cc1OCC | inactive
2 | CCc1c(C)sc2c1CCN(Cc1ccccc1F)C2c1ccccc1 (stereo not drawn) | inconclusive: 0.411 µM [rising, partial curve]
3 | Cc1nc2cccnc2n1C1CCN(C(=O)Nc2ccc(Cl)cc2)CC1 | inactive
4 | COc1cccc(CN(C)CC(=O)Nc2ccccc2C(=O)Nc2ccccc2)c1 | inconclusive: 10.3 µM [cytotoxic, partial curve, poor fit]
5 | Cc1cccn2c(=O)c3cc(C(=O)NCCc4ccccc4)c(=N)n(Cc4ccco4)c3nc12 | inconclusive: 18.4 µM [cytotoxic, single point]
6 | O=C(NCCSc1c[nH]c2ccccc12)c1ccccc1Cl | inconclusive: 2.06 µM [rising, full curve, poor fit]
7 | COc1cccc(CNS(=O)(=O)c2ccc3c(c2)CC(C)N3C(=O)C2CC2)c1 (stereo not drawn) | inconclusive: 1.84 µM [cytotoxic, full curve]
8 | CCCOc1ccccc1-n1sc2c(c1=S)-c1cc(OC)cc3c1N(C(=O)C3=O)C2(C)C | inconclusive: 18.4 µM [cytotoxic, single point]
9 | CC1(C(=O)NS(=O)(=O)c2ccc(Cl)s2)CCN1C(=O)c1ccccc1CCc1ccccc1 (stereo not drawn) | inactive
10 | COc1ccc(/C=N/NC(=O)Nc2cccc3nsnc23)cc1OC | inconclusive: 23.1 µM [cytotoxic, partial curve, poor fit]
11 | O=C(CCN1C(=O)c2ccccc2C1=O)N1CCN(C2c3ccccc3-c3ccccc32)CC1 | inconclusive: 18.4 µM [cytotoxic, single point]
12 | O=[N+]([O-])c1cc2ccccc2c(O)c1O | inconclusive: 18.4 µM [rising, partial curve, poor fit]
13 | CC(NCc1cc(Br)ccc1OCC(=O)NCc1ccccc1)c1ccccc1 (stereo not drawn) | inactive
14 | O=C1CC(Sc2nnc(-c3ccccc3O)o2)C(=O)N1c1ccccc1 (stereo not drawn) | inactive
15 | COc1ccc(N(C)S(=O)(=O)c2cccc(C(=O)Nc3ccc(-n4cnnn4)cc3)c2)cc1 | inconclusive: 29.1 µM [cytotoxic, single point]
16 | CCCCCCCCCCCC[n+]1ccc(C)c2ccccc21 | inactive
17 | CCO[C@@H]1OC(C(=O)Nc2ccccc2)=C[C@H](c2coc3ccccc3c2=O)[C@H]1CCCO | inactive
18 | O=C(NCCc1ccc(F)cc1)C(=O)NCC1CCCN1S(=O)(=O)c1ccccc1 (stereo not drawn) | active: 5.8 µM
19 | CC1CCN(C(=O)CSc2nc(-c3ccc(F)cc3)cc(C(F)(F)F)n2)CC1 | inconclusive: 18.4 µM [cytotoxic, single point]
20 | CC(=O)/C=C(/C)NC(Cc1c[nH]c2ccccc12)C(=O)O (stereo not drawn) | inconclusive: 14.6 µM [rising, partial curve]
21 | O=C(Nc1cccc2ccccc12)C(=O)C1C(=O)Nc2ccccc21 (stereo not drawn) | inconclusive: 25.9 µM [cytotoxic, single point]
22 | Cc1ccc2cc(C(c3nnnn3C3CCCC3)N3CCOCC3)c(=O)[nH]c2c1C (stereo not drawn) | inconclusive: 7.31 µM [cytotoxic, partial curve]

Row | Compound | Potency
23 | Nc1nc(CN2CCN(c3ccccc3F)CC2)nc(Nc2ccccc2)n1 | inconclusive: 11.6 µM [cytotoxic, partial curve]
24 | CCc1ccc(Nc2nc3ccccc3nc2NS(=O)(=O)c2ccccc2)cc1 | active: 18.4 µM
25 | Cc1ccc(NC(=O)CCC(=O)NNC(=S)Nc2ccc(F)cc2)c(C)c1 | inconclusive: 29.1 µM [rising, single point]
26 | O=C(c1ccccc1[N+](=O)[O-])N1CC2C3C=CC(C3)C2C1 (stereo not drawn) | inconclusive: 2.31 µM [rising, partial curve, poor fit]
27 | O=C(Cc1ccc(NC(=O)C2CCCN(C(=O)c3ccccc3)C2)cc1)Nc1ccc(C(=O)N2CCOCC2)cc1 (stereo not drawn) | inconclusive: 29.1 µM [cytotoxic, single point]
28 | COc1cccc(CC(=O)Nc2nc(-c3cccnc3)cs2)c1 | inconclusive: 16.4 µM [cytotoxic, partial curve]
29 | CN(C)/C=N/c1nc2ncc(-c3ccc(Cl)cc3)c(/N=C/N(C)C)n2n1 | active: 6.51 µM
30 | CC(C)N1CCN(Cc2ccc(OCc3ccccc3)cc2)CC1CCO (stereo not drawn) | inconclusive: 23.1 µM [cytotoxic, single point]
31 | CCOc1ccc(CCNC(=O)COC(=O)Cn2nc(C)c([N+](=O)[O-])c2C)cc1OCC | inactive
32 | Cc1cccc(NC(=S)NCCc2ccccc2)n1 | inconclusive: 18.4 µM [cytotoxic, single point]
33 | COc1ccc(OC)c(NC(=O)CSc2nc(C)cs2)c1 | inconclusive: 14.6 µM [cytotoxic, single point]
34 | O=C(NCCCOc1cccc(CN2CCCCC2)c1)c1ccc(Cl)c(Cl)c1 | inactive
35 | Cc1cc2c(cc1S(=O)(=O)Nc1cc(C(F)(F)F)cc(C(F)(F)F)c1)OCC(=O)N2 | inactive
36 | N=c1n(Cc2ccc(Cl)cc2)c2ccccc2n1CC(O)c1ccco1 (stereo not drawn) | active: 20.6 µM
37 | Cc1cccc(NC(=O)C2NC(=O)CC2c2ccccc2)c1C (stereo not drawn) | inactive
38 | CC(=O)O[C@H]1C(=O)[C@@]2(C)[C@H]([C@H](OC(=O)c3ccccc3)[C@]3(O)C[C@H](OC(=O)[C@H](O)[C@@H](NC(=O)c4ccccc4)c4ccccc4)C(C)=C1C3(C)C)[C@]1(OC(C)=O)CO[C@@H]1C[C@@H]2O | active: 13 µM
39 | COc1ccc(C)cc1N(C(=O)COc1ccccc1)c1nc2ccccc2s1 | active: 20.6 µM
40 | COc1cc2nc(CN(C)Cc3nc4ccccc4c(=O)[nH]3)[nH]c(=O)c2cc1OC | inactive
41 | CC(=O)Nc1ccc(Nc2cc(C(C)C)nc3c(-c4ccccc4)c(C)nn23)cc1 | inactive
42 | COc1ccc(C(C[N+](=O)[O-])c2c(-c3ccccc3)cc3ccccn23)cc1 (stereo not drawn) | inconclusive: 29.1 µM [cytotoxic, single point]
43 | CC(C)(C)N(Cc1ccccc1)C(=O)COC(=O)C1CCN(c2ccc(C(F)(F)F)cn2)CC1 | inconclusive: 18.4 µM [cytotoxic, single point]

Some of the entries so far, with each value named.
Cc1cc2c(cc1S(=O)(=O)Nc1cc(C(F)(F)F)cc(C(F)(F)F)c1)OCC(=O)N2
  Potency: inactive
Cc1cccc(NC(=O)C2NC(=O)CC2c2ccccc2)c1C (stereo not drawn)
  Potency: inactive
COc1cc2nc(CN(C)Cc3nc4ccccc4c(=O)[nH]3)[nH]c(=O)c2cc1OC
  Potency: inactive
CC(=O)Nc1ccc(Nc2cc(C(C)C)nc3c(-c4ccccc4)c(C)nn23)cc1
  Potency: inactive
